The list does not hold the whole screen: it is rich in T/C values a quarter to a half above the control, in often repeated tests (any T/C) and in doses without a T/C. Further doses and runs are listed elsewhere. T/C: endpoint of the treated group in % of that of the vehicle group. Some doses have a count of surviving animals in place of a T/C: the source holds a T/C of zero for them, seemingly a mark for toxic or unscored doses. Some survivor counts are full or nearly so, which does not show that the dose was tolerated: the source hardly ever lists a survival T/C far under the control, and the zero likely stands for such cases as well. Survivors were counted at the toxicity check, usually on the fifth day, unless a day is given; later deaths do not show. Schedules are NCI's codes, taken here to give the interval after Q, in days (D) or hours (H), and the number of doses after X. Some entries were tested several times; the values are given in rising order. Where survival is the endpoint, this PubChem deposit counts one and a half times the control or more as active, and values a quarter to a half above the control carry no call in these data; other NCI protocols may use other cut-offs. Some T/C values are followed by the survivors on the day toxicity was checked, most often the fifth; without a count, all were alive then. *1 amine or outer side, *2 acyl side, *3 side chain or, on linkers, in order; H or OH if unused. Where a SMILES comes first, the peptide text is derived from it. Bridges are numbered along the chain shown (N, C = ends). Roman numbers before positions name the chains, in order. [ ]: non-standard residue; d: D form. Actinocin(9to1) = Cc1c2oc3c(C)ccc(C(=O)[*:1])c3nc-2c(C(=O)[*:2])c(N)c1=O; aThr = C[C@H](O)[C@H](N)C(=O)O; NMeV = CN[C@H](C(=O)O)C(C)C; Sar = CNCC(=O)O
System: BDF1 mice, B16 melanoma s.c., survival/tumor T/C
Assay: NCI In Vivo Anticancer Drug Screen. Data for tumor model B16 Melanoma (subcutaneous) in B6D2F1 (BDF1) mice
Details: T/C endpoint: median survival time, higher T/C = longer survival
Experimental: The antitumor activity of compounds was measured in mice bearing transplantable tumors. Survival or tumor size were measured and the results are expressed as the measurement made in the treated group (T) divided by the measurement made in the vehicle treated control group (C). The tumor model used in this assay is B16 Melanoma (subcutaneous) in B6D2F1 (BDF1) mice

[1] = dose: 25.0 micrograms/kg/injection, schedule: Q01DX009 (ip), vehicle: saline
[2] = dose: 50.0 micrograms/kg/injection, schedule: Q01DX009 (ip), vehicle: saline
[3] = dose: 100.0 micrograms/kg/injection, schedule: Q01DX009 (ip), vehicle: saline

`CC(C)CCC[C@@H](C)[C@H]1CC[C@H]2[C@@H]3CC=C4C[C@@H](O)CC[C@]4(C)[C@H]3CC[C@]12C` was tested, and the survivor count (dose: 100.0 mg/kg/injection, schedule: Q01DX009 (ip), vehicle: other) was 10 of 10 and 12 of 12, the survivor count (dose: 200.0 mg/kg/injection, schedule: Q01DX009 (ip), vehicle: other) was 12 of 12 and the survivor count (dose: 400.0 mg/kg/injection, schedule: Q01DX009 (ip), vehicle: other) was 12 of 12. The survivor count (dose: 800.0 mg/kg/injection, schedule: Q01DX009 (ip), vehicle: other) was 12 of 12 and the survivor count (dose: 1600.0 mg/kg/injection, schedule: Q01DX009 (ip), vehicle: other) was 7 of 12.
For `FC(F)c1nc2nc(Cl)c(Cl)nc2[nH]1`, the T/C (dose: 4.0 mg/kg/injection, schedule: Q01DX009 (ip), vehicle: other) was 133 % of control, the survivor count (dose: 64.0 mg/kg/injection, schedule: Q01DX009 (ip), vehicle: other) was 7 of 8 and the survivor count (dose: 128.0 mg/kg/injection, schedule: Q01DX009 (ip), vehicle: other) was 0 of 8.
For `COC12C(COC(N)=O)C3=C(C(=O)C(C)=C(N)C3=O)N1CC1C2N1C` (stereo not given), the T/C (dose: 2.0 mg/kg/injection, schedule: Q01DX009 (ip), vehicle: Klucel (hydroxypropylcellulose) (HPC)) was 138 % of control [9 of 10 alive], the T/C (dose: 4.0 mg/kg/injection, schedule: Q01DX009 (ip), vehicle: Klucel (hydroxypropylcellulose) (HPC)) was 127 and 129 % of control and the survivor count (dose: 8.0 mg/kg/injection, schedule: Q01DX009 (ip), vehicle: Klucel (hydroxypropylcellulose) (HPC)) was 10 of 10. The survivor count (dose: 16.0 mg/kg/injection, schedule: Q01DX009 (ip), vehicle: Klucel (hydroxypropylcellulose) (HPC)) was 10 of 10 and the survivor count (dose: 32.0 mg/kg/injection, schedule: Q01DX009 (ip), vehicle: Klucel (hydroxypropylcellulose) (HPC)) was 10 of 10.
For `NC(=O)c1ccc[n+](Cc2c(Cl)cccc2Cl)c1`, the T/C (dose: 1.5 mg/kg/injection, schedule: Q01DX009 (ip), vehicle: saline) was 125 % of control.
In the case of `Nc1ccc(N=Nc2ccccc2)c(N)c1`, the survivor count (dose: 200.0 mg/kg/injection, schedule: Q01DX009 (ip), vehicle: Klucel (hydroxypropylcellulose) (HPC)) is reported as 10 of 10.
For `CSCS(=O)C[C@H](CO)NC(=O)/C=C/c1c(C)[nH]c(=O)[nH]c1=O` (stereo not given in full), the survivor count (dose: 1.2 mg/kg/injection, schedule: Q01DX009 (ip), vehicle: water) was 6 of 10.
`CC1(C)N=C(N)N=C(N)N1c1ccc(CCC(=O)Nc2ccc(S(=O)(=O)F)cc2)cc1` was tested, and the survivor count (dose: 50.0 mg/kg/injection, schedule: Q01DX009 (ip), vehicle: saline) was 6 of 6, the survivor count (dose: 100.0 mg/kg/injection, schedule: Q01DX009 (ip), vehicle: saline) was 6 of 6 and the survivor count (dose: 200.0 mg/kg/injection, schedule: Q01DX009 (ip), vehicle: saline) was 6 of 6. For the same molecule, the survivor count (dose: 400.0 mg/kg/injection, schedule: Q01DX009 (ip), vehicle: saline) was 6 of 6.
With `Cc1c2oc3c(C)ccc(C(=O)N[C@@H]4C(=O)N[C@H](C(C)C)C(=O)N5CCC[C@H]5C(=O)N(C)CC(=O)N(C)[C@@H](C(C)C)C(=O)O[C@H]4C)c3nc-2c(C(=O)N[C@@H]2C(=O)N[C@H](C(C)C)C(=O)N3CCC[C@H]3C(=O)N(C)CC(=O)N(C)[C@@H](C(C)C)C(=O)O[C@H]2C)c(N)c1=O` (I: [aThr][dV]P[Sar][NMeV] / II: [aThr][dV]P[Sar][NMeV]; ester I:1-I:C, II:1-II:C; linker I:N-II:N via Actinocin(9to1)) the T/C (dose: 13.0 micrograms/kg/injection, schedule: Q01DX009 (ip), vehicle: saline) was 87, 104, 110, 114, 135, 136, 143 % of control, the T/C [1] was 98, 111, 112, 119, 134, 143 % of control and the survivor count [1] was 6 of 6. For the same molecule, the T/C [2] was 95, 98, 110, 132 [5 of 6 alive], 136 % of control, the survivor count [2] was 5 of 6 and the T/C [3] was 112 and 118 % of control. For the same molecule, the survivor count [3] was 0 of 6, 2 of 6, 6 of 6.
In the case of `Nc1nncs1`, the T/C (dose: 26.0 mg/kg/injection, schedule: Q01DX009 (ip), vehicle: saline with Tween-80) is reported as 126 % of control, the T/C (dose: 39.0 mg/kg/injection, schedule: Q01DX009 (ip), vehicle: saline with Tween-80) is reported as 125 % of control [9 of 10 alive] and the T/C (dose: 800.0 mg/kg/injection, schedule: Q04DX003 (ip), vehicle: saline with Tween-80) is reported as 143 % of control. For the same molecule, the T/C (dose: 1340.0 mg/kg/injection, schedule: Q01DX001 (ip), vehicle: saline with Tween-80) was 126 % of control [9 of 10 alive].
`CC1=C(/C=C/C(C)=C/C=C/C(C)=C/CO)C(C)(C)CCC1` was tested, and the survivor count (dose: 4.0 mg/kg/injection, schedule: Q01DX009 (ip), vehicle: saline with Tween-80) was 10 of 10, the survivor count (dose: 8.0 mg/kg/injection, schedule: Q01DX009 (ip), vehicle: saline with Tween-80) was 10 of 10 and the T/C (dose: 64.0 mg/kg/injection, schedule: Q01DX009 (ip), vehicle: saline with Tween-80) was 126 % of control. For the same molecule, the survivor count (dose: 128.0 mg/kg/injection, schedule: Q01DX009 (ip), vehicle: saline with Tween-80) was 9 of 10 and 10 of 10.
With `O=NN(CCCl)C(=O)NC1CCC(=O)NC1=O` (stereo not given) the T/C (dose: 1.0 mg/kg/injection, schedule: Q01DX009 (ip), vehicle: Klucel (hydroxypropylcellulose) (HPC)) was 145 % of control, the T/C (dose: 2.59 mg/kg/injection, schedule: Q01DX007 (ip), vehicle: Klucel (hydroxypropylcellulose) (HPC)) was 132 % of control [9 of 10 alive on day 55] and the survivor count (dose: 12.0 mg/kg/injection, schedule: Q01DX007 (ip), vehicle: Klucel (hydroxypropylcellulose) (HPC)) was 1 of 10 on day 55. For the same molecule, the survivor count (dose: 31.0 mg/kg/injection, schedule: Q01DX001 (ip), vehicle: gum acacia) was 5 of 10.
In the case of `NNC(=O)c1ccncc1`, the T/C (dose: 16.0 mg/kg/injection, schedule: Q01DX009 (ip), vehicle: saline) is reported as 135 % of control, the T/C (dose: 32.0 mg/kg/injection, schedule: Q01DX009 (ip), vehicle: saline) is reported as 135 % of control and the survivor count (dose: 256.0 mg/kg/injection, schedule: Q01DX009 (ip), vehicle: saline) is reported as 3 of 10.
With `C=CCN1/C(=C/C=C\c2sc3ccccc3[n+]2CC=C)Sc2ccccc21` the T/C (dose: 250.0 micrograms/kg/injection, schedule: Q01DX009 (ip), vehicle: suspension in saline) was 136 % of control, the T/C (dose: 500.0 micrograms/kg/injection, schedule: Q01DX009 (ip), vehicle: suspension in saline) was 128 % of control and the T/C (dose: 1000.0 micrograms/kg/injection, schedule: Q01DX009 (ip), vehicle: suspension in saline) was 129 % of control.
